Results deposited as PubChem BioAssay AID686943 (Drosophila RNAi Screening Center, 2013)

Assay: 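Fly genes whose loss alters ERK activation after insulin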 (primary screen)
System: Drosophila S2R+ haemocyte-like cells expressing YFP-tagged ERK (Rolled)
Knock-down reagent: long dsRNA against Drosophila genes
Treatment: insulin stimulation versus unstimulated cells; dose and duration not given
Read-out: 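Antibody staining for doubly phosphorylated ERK divided by ERK-YFP signal, as plate z-scores, in insulin-treated and untreated cells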
Scale: replicate 1, z-score of dpERK with insulin: higher = more active ERK per ERK-YFP after insulin
The screen tested about 23,000 reagents; below is an unselected part of those that have a named target and a result. 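Extra replicates exist only for a retested subset of genes; insulin dose and duration not given; both raised and lowered dpERK matter.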 Reagents against one gene are numbered here. A plus sign joins genes that one reagent is predicted to hit. Further read-outs or replicates are left out here. The record does not give: the amount of reagent, the time to read-out.

What is on record for CG12828 (GeneID 5740660)?
replicate 1, z-score of dpERK with insulin: 0.23

How did the screen score etaTry (GeneID 36217)?
replicate 1, z-score of dpERK with insulin: -0.19

For CG15127 (GeneID 50203) #1, what does the deposit list?
replicate 1, z-score of dpERK with insulin: -0.09

Which result is listed for CG15127 (GeneID 50203) #2?
replicate 1, z-score of dpERK with insulin: 0.33

For Fibp (GeneID 40163), how do the results read?
replicate 1, z-score of dpERK with insulin: -1.5

For CG11475 (GeneID 37513), what was measured?
replicate 1, z-score of dpERK with insulin: -0.48

What is on record for CG31265 (GeneID 42068)?
replicate 1, z-score of dpERK with insulin: 0.51

With PolG1 (GeneID 34792), how do the results read?
replicate 1, z-score of dpERK with insulin: 0.54

For CG4230 (GeneID 33743), how do the results read?
replicate 1, z-score of dpERK with insulin: -0.56

For CG15210 (GeneID 50323), what does the deposit list?
replicate 1, z-score of dpERK with insulin: 0.18

With CG5516 (GeneID 41940) #1, what was measured?
replicate 1, z-score of dpERK with insulin: 1.7

Which result is listed for CG5516 (GeneID 41940) #2?
replicate 1, z-score of dpERK with insulin: -0.62

For Mcm5 (GeneID 41296), what does the deposit list?
replicate 1, z-score of dpERK with insulin: 0.29

What did the screen give for CG6294 + CG6299?
replicate 1, z-score of dpERK with insulin: -0.56

How did the screen score Ca-beta (GeneID 34557) #1?
replicate 1, z-score of dpERK with insulin: 1.2

Which result is listed for Ca-beta (GeneID 34557) #2?
replicate 1, z-score of dpERK with insulin: 2.45

How did the screen score Ca-beta (GeneID 34557) #3?
replicate 1, z-score of dpERK with insulin: 1.97

With Ca-beta (GeneID 34557) #4, how do the results read?
replicate 1, z-score of dpERK with insulin: 0.09

What did the screen give for tna (GeneID 39217) #1?
replicate 1, z-score of dpERK with insulin: -0.03

Which result is listed for tna (GeneID 39217) #2?
replicate 1, z-score of dpERK with insulin: 1.94

With Spt-I (GeneID 36448), what does the deposit list?
replicate 1, z-score of dpERK with insulin: 1.18

For CG15333 (GeneID 31720) #1, how do the results read?
replicate 1, z-score of dpERK with insulin: -0.25

What did the screen give for CG15333 (GeneID 31720) #2?
replicate 1, z-score of dpERK with insulin: 0.41

Which result is listed for CG32582 (retired record) (GeneID 318099)?
replicate 1, z-score of dpERK with insulin: -0.11

What did the screen give for Tbc1d15-17 (GeneID 33184)?
replicate 1, z-score of dpERK with insulin: 0.77

For Cubn (GeneID 326235), what does the deposit list?
replicate 1, z-score of dpERK with insulin: 0.6

With CG18088 (GeneID 34219), how do the results read?
replicate 1, z-score of dpERK with insulin: 0.37

For Sec16 (GeneID 32209) #1, what was measured?
replicate 1, z-score of dpERK with insulin: 1.34

For Sec16 (GeneID 32209) #2, how do the results read?
replicate 1, z-score of dpERK with insulin: -0.19

For CR41501 (GeneID 5740839), what does the deposit list?
replicate 1, z-score of dpERK with insulin: 0.12

How did the screen score Sec6 (GeneID 37142)?
replicate 1, z-score of dpERK with insulin: -0.66

With lncRNA:CR43485 (GeneID 12798587), what was measured?
replicate 1, z-score of dpERK with insulin: 0.21

What is on record for brun (GeneID 35325)?
replicate 1, z-score of dpERK with insulin: -0.71

For mtgo (GeneID 34987) #1, what does the deposit list?
replicate 1, z-score of dpERK with insulin: -0.47

Which result is listed for mtgo (GeneID 34987) #2?
replicate 1, z-score of dpERK with insulin: 0.99

With mtgo (GeneID 34987) #3, what was measured?
replicate 1, z-score of dpERK with insulin: 1.05

For mtgo (GeneID 34987) #4, what was measured?
replicate 1, z-score of dpERK with insulin: -1.02

What is on record for mtgo (GeneID 34987) #5?
replicate 1, z-score of dpERK with insulin: 0.86

What did the screen give for CG45263 (GeneID 50003) #1?
replicate 1, z-score of dpERK with insulin: 0.57

With CG45263 (GeneID 50003) #2, what does the deposit list?
replicate 1, z-score of dpERK with insulin: 3.09

With CG45263 (GeneID 50003) #3, what was measured?
replicate 1, z-score of dpERK with insulin: 0.01

For CG45263 (GeneID 50003) #4, what does the deposit list?
replicate 1, z-score of dpERK with insulin: -0.82

With CG45263 (GeneID 50003) #5, what does the deposit list?
replicate 1, z-score of dpERK with insulin: -2.3

Already shown: entries from further up.
tna (GeneID 39217) #1 → replicate 1, z-score of dpERK with insulin: -0.03
tna (GeneID 39217) #2 → replicate 1, z-score of dpERK with insulin: 1.94
Spt-I (GeneID 36448) → replicate 1, z-score of dpERK with insulin: 1.18
CG15333 (GeneID 31720) #1 → replicate 1, z-score of dpERK with insulin: -0.25
